Measured values as given in PMC11094088, “Molecular mechanism of Oxr1p mediated disassembly of yeast V-ATPase” (EMBO Reports, 2024).
No constants are given. Whether binding was seen depends on the method and setting. For some of these results: Binding calls can cover weak binding; strength is not graded here. For some of these results: Tags and fused reporters may be left off the sequences shown. For some of these results: Binding seen in cells or lysates may run through a third protein.

B1: Oxidation Resistance protein 1 (Oxr1p), recombinant (natural protein, yeast, UniProt Q08952 1-273, looked up)
chain: MFGVKDAIFKIKRSIAGTDSSDSTAYTTASESSPQLKDSHNPFRNKTTSERTIVEEGSLPPVRLNGYLPSTKNKLLTPEMCDEIRTLMPTRIQLYTEWNLLYSLEQHGSSLHSLYSNVAPDSKEFRRVGYVLVIKDRKNGIFGAYSNEAFHPNEHRQYTGNGECFLWKLDKVPDVNISEKEESEQEGKEGKEEGDKEERWRFSGYPYTGVNEFAIYCTSEFLSMGAGDGHYGLLCDDGLLHGVSNPCQTYGNEVLSKEGKKFSIVALEVWRVG
notes: Oxr1p, yeast TLDc domain protein; construct as described in Khan et al, 2022; also called recombinant Oxr1p; source: E. coli BL21DE3, purified (Ni-NTA, Superdex-75 SEC); not shown: 7xHis, N-terminal, kept

How the values were obtained:
[1] = molecular target: T1, recombinant N-terminally 7×His tagged biotinylated Oxr1p (bio-Oxr1p) (yeast) (UniProt Q08952); assay: pull-down; recombinant bio-Oxr1p as bait, ~10 µg purified V1 subcomplex with or without twofold molar excess of subunit C, 30 min at room temperature, streptavidin beads, SDS-PAGE (Coomassie); both purified
T1 sequence (chain, biotin on the Avi tag (incomplete biotinylation)): B1 chain

[2] = molecular target: V1 of wild-type V-ATPase with N-terminally FLAG-tagged subunit G (FLAG-Vma10p) (yeast (endogenous) | yeast); assay: pull-down; reverse pull-down as a7, in the presence of ATP; only the binder purified
[3] = molecular target: V1 of wild-type V-ATPase with N-terminally FLAG-tagged subunit G (FLAG-Vma10p) (yeast (endogenous) | yeast); assay: pull-down; reverse pull-down: vacuoles of the strain expressing FLAG-tagged G mixed with recombinant Oxr1p, disassembled V1 pulled down via anti-FLAG M2 affinity gel, without ATP; western blot; only the binder purified
[4] = molecular target: wild-type yeast V-ATPase reconstituted into lipid nanodiscs (V1VoND) (yeast (endogenous) | yeast); assay: cryo-EM structure; V-ATPase in lipid nanodiscs (~1-2 mg/ml) vitrified with a twofold molar excess of Oxr1p, no nucleotide; 3-D classes at ~8.2 Å; Oxr1p density in the rotary state 1 class (~31% of particles); both purified

Molecule	binding [1]	binding [2]	binding [3]	binding [4]
V1ΔH^(ΔOxr1) in the presence of recombinant subunit C (yeast (endogenous) | yeast) (complex)	binds			
B1		no binding (only with ATP)	binds	binds
